Test results from publication doi:10.1101/2020.10.08.332312.
Where a chain is given by its changes, count along the chain named. No constants are given. Whether binding was seen depends on the method and setting. For part of these data: In cells and extracts the contact can be indirect. Where a sequence is shown, tags or fusion partners need not be part of it. Some results given as binding are weak or reduced against the parent protein; the word gives no strength.

Protein sequences, listed by entry. Tags and fused reporters are not part of them. Lines headed by an entry give the natural chain unless they say otherwise; changes in a name come on top.
UniProt Q03337, whole entry: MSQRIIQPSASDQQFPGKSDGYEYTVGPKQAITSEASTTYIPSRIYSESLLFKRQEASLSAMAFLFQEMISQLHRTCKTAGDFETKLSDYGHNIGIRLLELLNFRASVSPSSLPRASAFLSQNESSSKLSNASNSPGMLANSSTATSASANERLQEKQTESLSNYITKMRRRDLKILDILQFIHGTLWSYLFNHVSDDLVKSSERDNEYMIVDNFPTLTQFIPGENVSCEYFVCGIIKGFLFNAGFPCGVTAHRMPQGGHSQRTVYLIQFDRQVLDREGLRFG

T1: Trs20 (subunit of the recombinant TRAPPIII complex) (S. cerevisiae) (UniProt P38334)
T1 sequence: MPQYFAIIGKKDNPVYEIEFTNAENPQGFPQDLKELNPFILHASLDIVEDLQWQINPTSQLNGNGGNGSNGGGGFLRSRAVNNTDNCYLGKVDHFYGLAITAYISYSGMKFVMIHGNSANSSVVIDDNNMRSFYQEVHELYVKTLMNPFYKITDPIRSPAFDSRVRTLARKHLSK

T2: Trs85-mNeonGreen R620E (S. cerevisiae) (UniProt P46944)
T2 sequence: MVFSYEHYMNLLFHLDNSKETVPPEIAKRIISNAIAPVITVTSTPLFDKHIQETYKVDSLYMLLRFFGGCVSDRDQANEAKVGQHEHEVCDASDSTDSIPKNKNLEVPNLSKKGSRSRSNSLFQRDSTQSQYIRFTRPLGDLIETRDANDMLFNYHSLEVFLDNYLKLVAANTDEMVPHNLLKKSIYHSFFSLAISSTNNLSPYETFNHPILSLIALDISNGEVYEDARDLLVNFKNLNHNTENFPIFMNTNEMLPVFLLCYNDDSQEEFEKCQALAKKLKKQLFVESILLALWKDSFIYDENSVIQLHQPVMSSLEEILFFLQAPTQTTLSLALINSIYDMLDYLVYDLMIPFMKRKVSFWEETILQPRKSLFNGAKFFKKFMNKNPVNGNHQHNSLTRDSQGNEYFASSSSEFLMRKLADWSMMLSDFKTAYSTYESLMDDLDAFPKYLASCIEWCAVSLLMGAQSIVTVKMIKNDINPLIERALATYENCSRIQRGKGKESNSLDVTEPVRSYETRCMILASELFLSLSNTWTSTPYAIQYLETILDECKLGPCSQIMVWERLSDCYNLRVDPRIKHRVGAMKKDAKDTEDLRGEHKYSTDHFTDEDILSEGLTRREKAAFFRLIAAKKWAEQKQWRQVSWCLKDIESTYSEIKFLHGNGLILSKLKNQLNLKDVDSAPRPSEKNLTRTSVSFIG

T3: Trs85-mNeonGreen quadruple alanine mutant (Arg618, Arg619, Arg620, Lys621 to alanine) (S. cerevisiae) (UniProt P46944)
T3 sequence: T2 sequence with R618A, R619A, E620A, K621A

B1: Trs85 (His6-Trs85, subunit of the recombinant TRAPPIII complex) (protein, UniProt P46944 1-698)
chain: T2 sequence with E620R
B2: Trs23-6xHis-3xFLAG (expressed in yeast) (protein, UniProt Q03784 1-219)
chain: MAIETILVINKSGGLIYQRNFTNDEQKLNSNEYLILASTLHGVFAIASQLTPKALQLTQQTNIENTIPYIPYVGMSSNRSDTRNGGGNNNKHTNNEKLGSFKGDDFFKEPFTNWNKSGLRQLCTDQFTMFIYQTLTGLKFVAISSSVMPQRQPTIATTDKPDRPKSTSNLAIQIADNFLRKVYCLYSDYVMKDPSYSMEMPIRSNLFDEKVKKMVENLQ

Assays:
[1] = biological target: Trs31 (subunit of the recombinant TRAPPIII complex) (S. cerevisiae) (UniProt Q03337); assay: cryo-EM structure
[2] = biological target: T1, Trs20 (subunit of the recombinant TRAPPIII complex) (S. cerevisiae); assay: cryo-EM structure
[3] = biological target: Trs31 (subunit of the recombinant TRAPPIII complex) (S. cerevisiae) (UniProt Q03337); assay: cross-linking
[4] = biological target: T1, Trs20 (subunit of the recombinant TRAPPIII complex) (S. cerevisiae); assay: cross-linking
[5] = biological target: T2, Trs85-mNeonGreen R620E (S. cerevisiae); assay: co-IP
[6] = biological target: T3, Trs85-mNeonGreen quadruple alanine mutant (Arg618, Arg619, Arg620, Lys621 to alanine) (S. cerevisiae); assay: co-IP

Binder | binding [1] | binding [2] | binding [3] | binding [4] | binding [5] | binding [6]
B1 | binds | binds | binds | binds | – | –
B2 | – | – | – | – | no binding | no binding
